Results deposited as PubChem BioAssay AID1159584 (Peter MacCallum Cancer Centre, 2016)

Assay: 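Knock-downs that harm CDH1-null cells more than parental MCF10A cells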 (primary screen)
Cells: human MCF10A breast epithelial cells, parental and CDH1-null
Reagents: siRNA against human genes
Measurement: 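ATP luminescence (CellTiter-Glo) viability per line relative to mean mock wells over all plates, and the ratio of CDH1-null to parental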
Reading the numbers: CDH1-null / parental viability ratio: higher = CDH1-null cells survive relatively better than parental
Shown is one part, drawn at random, of about 18,000 reagents. Not all columns of the deposit are shown. The record does not give: the amount of reagent, the time to read-out.

The opening 7 entries as a preview:
| target gene | PubChem SID | CDH1-null / parental viability ratio |
| --- | --- | --- |
| APRT (adenine phosphoribosyltransferase) | SID135621180 | 1.08 |
| PTPN11 (protein tyrosine phosphatase non-receptor type 11) | SID134310183 | 1.28 |
| GJD3 (gap junction protein delta 3) | SID152151003 | 0.74 |
| POTEA (POTE ankyrin domain family member A (gene/pseudogene)) | SID135625260 | 1.02 |
| ALOX15 (arachidonate 15-lipoxygenase) | SID134310087 | 1.23 |
| CFAP107 (cilia and flagella associated protein 107) | SID134320826 | 0.8 |
| SDHB (succinate dehydrogenase complex iron sulfur subunit B) | SID135622194 | 0.97 |

The listing, repeating the preview:
| target gene | PubChem SID | CDH1-null / parental viability ratio |
| --- | --- | --- |
| APRT (adenine phosphoribosyltransferase) | SID135621180 | 1.08 |
| PTPN11 (protein tyrosine phosphatase non-receptor type 11) | SID134310183 | 1.28 |
| GJD3 (gap junction protein delta 3) | SID152151003 | 0.74 |
| POTEA (POTE ankyrin domain family member A (gene/pseudogene)) | SID135625260 | 1.02 |
| ALOX15 (arachidonate 15-lipoxygenase) | SID134310087 | 1.23 |
| CFAP107 (cilia and flagella associated protein 107) | SID134320826 | 0.8 |
| SDHB (succinate dehydrogenase complex iron sulfur subunit B) | SID135622194 | 0.97 |
| LAMP5 (lysosome associated membrane protein 5) | SID134323535 | 1.03 |
| HERPUD1 | SID152153668 | 1.18 |
| ADAMTS18 (ADAM metallopeptidase with thrombospondin type 1 motif 18) | SID152151092 | 1.09 |
| CXCL10 (C-X-C motif chemokine ligand 10) | SID152150747 | 1.18 |
| ZNG1F (Zn regulated GTPase metalloprotein activator 1F) | SID135625701 | 0.65 |
| RSL1D1 (ribosomal L1 domain containing 1) | SID152149766 | 1.14 |
| STARD8 (StAR related lipid transfer domain containing 8) | SID134314835 | 1.1 |
| ENPP4 (ectonucleotide pyrophosphatase/phosphodiesterase 4) | SID134313983 | 0.96 |
| TC2N (tandem C2 domains, nuclear) | SID135623501 | 0.94 |
| IFT22 (intraflagellar transport 22) | SID134318388 | 0.99 |
| AGMAT (agmatinase (putative)) | SID134324931 | 0.95 |
| MYL4 (myosin light chain 4) | SID134316057 | 0.79 |
| GARIN5A (golgi associated RAB2 interactor 5A) | SID135625212 | 1.5 |
| PCDHA4 (protocadherin alpha 4) | SID134317489 | 1.01 |
| CDKN1C (cyclin dependent kinase inhibitor 1C) | SID56478604 | 1.05 |
| TMEM168 (transmembrane protein 168) | SID152153488 | 0.83 |
| ULK1 (unc-51 like autophagy activating kinase 1) | SID56478976 | 0.93 |
| AGR3 | SID134315182 | 0.83 |
| SPATA2 (spermatogenesis associated 2) | SID134323807 | 0.99 |
| PLCG2 (phospholipase C gamma 2) | SID152152917 | 0.8 |
| EML4 (EMAP like 4) | SID134313273 | 1.23 |
| HCRTR1 (hypocretin receptor 1) | SID134311066 | 0.78 |
| ADCY5 (adenylate cyclase 5) | SID134311929 | 0.96 |
| AOC2 (amine oxidase copper containing 2) | SID152154293 | 1.31 |
| PCDH18 (protocadherin 18) | SID152154940 | 0.86 |
| SNRNP27 (small nuclear ribonucleoprotein U4/U6.U5 subunit 27) | SID134317014 | 1.03 |
| WRN (WRN RecQ like helicase) | SID152148996 | 0.91 |
| RGS20 (regulator of G protein signaling 20) | SID135621570 | 1.12 |
| WDR48 (WD repeat domain 48) | SID134320452 | 1.45 |
| ANOS1 (anosmin 1) | SID135622045 | 0.9 |
| RIMS3 (regulating synaptic membrane exocytosis 3) | SID134324521 | 0.8 |
| DNAJB9 (DnaJ heat shock protein family (Hsp40) member B9) | SID134317066 | 0.98 |
| NSD3 (nuclear receptor binding SET domain protein 3) | SID134317125 | 1 |
| KIF26B (kinesin family member 26B) | SID135624278 | 0.85 |
| KRTAP20-2 (keratin associated protein 20-2) | SID134322458 | 0.81 |
| ANXA2R (annexin A2 receptor) | SID152153968 | 0.96 |
| SLC16A1 | SID152155314 | 0.98 |
| SCRT1 (scratch family transcriptional repressor 1) | SID152152850 | 2.19 |
| OR2T34 (olfactory receptor family 2 subfamily T member 34) | SID135624283 | 1.04 |
| ZNF32 (zinc finger protein 32) | SID152154262 | 1.02 |
| GOLT1B (golgi transport 1B) | SID152155215 | 0.84 |
| CCL2 (C-C motif chemokine ligand 2) | SID152153876 | 0.94 |
| PYDC1 (pyrin domain containing 1) | SID152155134 | 0.87 |
| C19orf47 (chromosome 19 open reading frame 47) | SID134322406 | 0.73 |
| MBD3L2 (methyl-CpG binding domain protein 3 like 2) | SID135623320 | 1.12 |
| RAB3C (RAB3C, member RAS oncogene family) | SID134313387 | 0.88 |
| LIPE (lipase E, hormone sensitive type) | SID134314184 | 1.14 |
| NPY5R (neuropeptide Y receptor Y5) | SID134311113 | 0.72 |
| KLHL22 (kelch like family member 22) | SID135623034 | 1.16 |
| SLC25A47 | SID135621349 | 0.92 |
| KCNK18 (potassium two pore domain channel subfamily K member 18) | SID152155027 | 1.36 |
| LDHD (lactate dehydrogenase D) | SID135621637 | 1.17 |
| PRMT8 (protein arginine methyltransferase 8) | SID152148918 | 1.37 |
| DDX5 (DEAD-box helicase 5) | SID152150308 | 0.98 |
| BAZ1B (bromodomain adjacent to zinc finger domain 1B) | SID152149179 | 0.98 |
| LRRN4 (leucine rich repeat neuronal 4) | SID134321133 | 1.09 |
| ABCA2 (ATP binding cassette subfamily A member 2) | SID134314423 | 0.85 |
| MRGPRE (MAS related GPR family member E) | SID152149442 | 1.44 |
| DICER1 (dicer 1, ribonuclease III) | SID134309921 | 1.25 |
| RPLP2 (ribosomal protein lateral stalk subunit P2) | SID135620813 | 1.19 |
| EVI2B (ecotropic viral integration site 2B) | SID152148573 | 1.05 |
